# Library screen at single concentrations

Results are given as percent effect. The controls that fix the scale are not given in the record; negative values are as filed. The compounds are a random part of those screened.

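Whole-cell growth test on Mycobacterium tuberculosis, read after 4 days in a medium based on cholesterol and the lipid DPPC; the read-out is not stated. Tested at 500 µM. Higher reads as more growth inhibition (inferred: compounds with an IC50 in retests scored well above the rest). Size under these conditions: about 18,000 compounds, about 900 of them at 50% or above in at least one test.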

SMILES	effect
NCc1cnc2sccn12	4.75
CCOC(=O)c1cccc(NC(N)=O)c1	5.72
Cc1cc(Cl)ccc1NC(=O)CN1CCN(C)CC1	35.6
Cn1nc(N)cc1C(=O)N1CCOCC1	14.53
CCN(CC)CCN1CCN(CCOC)CC1	-15.25
CCC(N)C(=O)N1CCN(C(C)C)CC1 (centres undefined)	3.119
Clc1ccc2nc(CN3CCNCC3)cn2c1	27.39
CNc1nnc(SCc2csc(NC(C)=O)n2)s1	-9.478
Cc1cccc(C(=O)N2CCCC(O)(CO)C2)n1 (centres undefined)	-12.51
COCC1(CNC(=O)NCCCF)CCC1	4.91
O=C(CCc1ccc(O)cc1)N[C@@H]1CCNC[C@H]1O	-3.28
OCC1CCCN1c1ncnc2ccc(F)cc12 (centres undefined)	7.494
O=C(CCNCc1sccc1Cl)NCc1cccnc1	-0.0577
CCC(=O)NC1CCCc2nc(N(C)C)ncc21 (centres undefined)	-29.64
CCOc1cccc(NC(=O)CCOC)n1	5.016
CN1CCCCC1CCC(=O)NCCn1cccc1 (centres undefined)	-10.96
N[C@@H]1CC[C@@H]1NC(=O)c1scc2c1OCCO2	8.823
CC(CN1CCOCC1)Nc1ccncn1 (centres undefined)	6.386
CN1CCCC(C)(CO)C1 (centres undefined)	3.241
O=C(CN1CCC(O)CC1)N1CCCCCCC1	-0.2364
C[C@@H]1CN(C(=O)CCc2ccnn2C)C[C@H](C)O1	-0.3902
CNCC(=O)NCCc1cnn(-c2ccccc2)c1	28.42
Fc1cnc2[nH]ccc2c1	-16.1

For reference, 2 entries once more:

Result for COCC1(CNC(=O)NCCCF)CCC1 was 4.91%.
Result for Cn1nc(N)cc1C(=O)N1CCOCC1 was 14.53%.

The values are deposited in ChEMBL (CHEMBL3988442, “University of Dundee, Small-Polar-MMV Screening Library” (2021)).